Consider 1 substance from PMC11844279.

Protein sequences, listed by entry. Tags and fused reporters are not part of them.
UniProt Q96DH6: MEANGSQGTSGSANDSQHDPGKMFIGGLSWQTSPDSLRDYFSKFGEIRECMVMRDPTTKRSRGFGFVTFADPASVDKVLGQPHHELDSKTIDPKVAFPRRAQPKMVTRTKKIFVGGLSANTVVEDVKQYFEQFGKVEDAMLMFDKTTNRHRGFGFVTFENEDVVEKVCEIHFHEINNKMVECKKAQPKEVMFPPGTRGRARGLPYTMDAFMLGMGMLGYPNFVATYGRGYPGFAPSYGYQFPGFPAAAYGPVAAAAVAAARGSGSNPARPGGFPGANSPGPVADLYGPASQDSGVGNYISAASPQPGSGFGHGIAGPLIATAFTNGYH
UniProt P08670: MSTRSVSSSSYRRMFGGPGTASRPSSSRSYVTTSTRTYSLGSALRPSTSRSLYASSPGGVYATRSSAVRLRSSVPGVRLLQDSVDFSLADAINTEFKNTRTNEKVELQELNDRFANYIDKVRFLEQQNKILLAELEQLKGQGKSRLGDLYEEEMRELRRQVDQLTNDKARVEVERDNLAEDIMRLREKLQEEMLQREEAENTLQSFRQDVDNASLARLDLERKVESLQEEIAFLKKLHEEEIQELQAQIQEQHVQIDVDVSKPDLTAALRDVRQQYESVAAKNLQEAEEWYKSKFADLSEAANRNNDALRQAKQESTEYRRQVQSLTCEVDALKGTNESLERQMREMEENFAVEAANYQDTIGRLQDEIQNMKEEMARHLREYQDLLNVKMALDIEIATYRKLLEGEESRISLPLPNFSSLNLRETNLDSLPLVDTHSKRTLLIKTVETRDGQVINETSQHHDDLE

No constants are given. Whether binding was seen depends on the method and setting. Binding seen in cells or lysates may run through a third protein. A yes stands for co-enrichment or nearness to the bait. Other partners may have been found.

This assay addresses Musashi RNA binding protein 2 (MSI2) (human (endogenous in MDA-MB-231)) (UniProt Q96DH6). As to the kind of experiment: affinity purification with mass spectrometry; MSI2 antibody coupled to Dynabeads M-270 epoxy beads (7 µg/mg beads) incubated at 4 °C with lysates (1X IP buffer) of untreated MDA-MB-231 and DEHP-exposed clone #1 cells; eluate resolved by SDS-PAGE, bands cut, trypsin digest, LC-MS/MS (Orbitrap Elite), Mascot search against NCBI RefSeq.

As for vimentin (from UniProt P08670 1-466), the binding result is given as “binds”.
